# At least one structure is not confirmed: it was looked up by name or label, or the drawing left a doubt. Some of these results come from one statement about several compounds together.
# Assays:
# [1] = test system: Hayward kiwifruit; assay: Trial 1: cane painting, budbreak and flowering; assay type: in vivo, Actinidia deliciosa
# Procedure: A cane painting experiment was performed in a Hayward kiwifruit orchard in the Bay of Plenty New Zealand in 2010 following a winter with average winter chill. Low-medium vigour canes of 1.6 m average length from 36 vines were tagged and either left untreated or painted with one of HC, Examples 1-4 and Comparative Example 1. The date of painting (6-Aug) was 56 days before natural budbreak (DBNB). Budbreak (BBCH stage 9) and flowering (BBCH stage 60) were determined based on the photographs published by Salinero et al., 2009, “Phenological growth stages of kiwifruit (Actinidia deliciosa ‘Hayward’)”, Scientia Horticulturae 121, 27-31, which is hereby incorporated by reference in its entirety. Graphed and tabulated data represent averages of the 36 replicates and are normalised based on the number of winter buds on each cane.
# FIG. 1 illustrates the progression of budbreak in Trial 1. FIG. 2 illustrates the progression of flowering in Trial 1. The progress curves depicted in FIGS. 1 and 2 were fitted to a cumulative normal curve to calculate the midpoints of budbreak and flowering (the dates corresponding to a 50% response) and spread of response time (defined as 4× standard deviation) as summarised in Tables 1 and 2.
# [2] = test system: Gold3 kiwifruit; assay: Trial 4: cane painting, budbreak and flowering; assay type: in vivo, Actinidia chinensis Planch. var. chinensis 'Zesy002'
# Procedure: This cane painting experiment was performed in a Bay of Plenty orchard in 2013 following a winter with poor chill in the key months of May and June. Low-medium vigour canes typical of the orchard were painted with either HC or Example 9 on 13-Aug and 20-Aug, 34 and 27 days before natural budbreak which occurred on 16-Sep. […] FIG. 5 illustrates the progression of budbreak and FIG. 6 illustrates the progress of flowering in Trial 4.
# [3] = test system: Hayward kiwifruit vines; assay: Trial 2: cane painting, salicylic acid dose-response, budbreak; assay type: in vivo, Actinidia deliciosa; settings: painted 9-Aug, 50 DBNB, extremely low winter chill
# Procedure: A cane painting experiment was performed in 2012 in a Hayward kiwifruit orchard in Taranaki, New Zealand. Canes of 1.2 m average length from 33 vines were tagged and either left untreated or painted with one of HC, Examples 5-8 and Comparative Examples 2 and 3 on 9-Aug, 50 DBNB (28-Sep). Midpoints and spread were calculated for budbreak (Table 3) but there were insufficient data to perform the calculations for flowering. […] FIG. 3 illustrates the progression of budbreak in Trial 2. FIG. 4 illustrates the progress of flowering in Trial 2.
structure (smiles),measurement,setting,value
"N#CN [HC, hydrogen cyanamide]",Midpoint of BB,"[1]; Table 2, onset of flowering, date of 50% response",20-Nov
same,budbreak and flowering compared to untreated results (in words),"[1]; Trial 1, FIGS. 1 and 2",large increases in budbreak and flowering
same,Midpoint of BB,"[1]; budbreak, date of 50% response from cumulative normal fit, painted 6-Aug, 56 DBNB",25-Sep
same,Midpoint of BB,[2]; painted 27 DBNB (20-Aug),14-Sep
same,Midpoint of BB,[2]; painted 34 DBNB (13-Aug),9-Sep
same,Midpoint of BB,[3],13-Sep
